The supplement of paper PMC6411743
± gives the standard deviation of the averaged measurements. The list shows a part of the results.

Protein sequences, listed by entry. Tags and fused reporters are not part of them. Lines headed by an entry give the natural chain unless they say otherwise; changes in a name come on top.
UniProt Q9Y2E5: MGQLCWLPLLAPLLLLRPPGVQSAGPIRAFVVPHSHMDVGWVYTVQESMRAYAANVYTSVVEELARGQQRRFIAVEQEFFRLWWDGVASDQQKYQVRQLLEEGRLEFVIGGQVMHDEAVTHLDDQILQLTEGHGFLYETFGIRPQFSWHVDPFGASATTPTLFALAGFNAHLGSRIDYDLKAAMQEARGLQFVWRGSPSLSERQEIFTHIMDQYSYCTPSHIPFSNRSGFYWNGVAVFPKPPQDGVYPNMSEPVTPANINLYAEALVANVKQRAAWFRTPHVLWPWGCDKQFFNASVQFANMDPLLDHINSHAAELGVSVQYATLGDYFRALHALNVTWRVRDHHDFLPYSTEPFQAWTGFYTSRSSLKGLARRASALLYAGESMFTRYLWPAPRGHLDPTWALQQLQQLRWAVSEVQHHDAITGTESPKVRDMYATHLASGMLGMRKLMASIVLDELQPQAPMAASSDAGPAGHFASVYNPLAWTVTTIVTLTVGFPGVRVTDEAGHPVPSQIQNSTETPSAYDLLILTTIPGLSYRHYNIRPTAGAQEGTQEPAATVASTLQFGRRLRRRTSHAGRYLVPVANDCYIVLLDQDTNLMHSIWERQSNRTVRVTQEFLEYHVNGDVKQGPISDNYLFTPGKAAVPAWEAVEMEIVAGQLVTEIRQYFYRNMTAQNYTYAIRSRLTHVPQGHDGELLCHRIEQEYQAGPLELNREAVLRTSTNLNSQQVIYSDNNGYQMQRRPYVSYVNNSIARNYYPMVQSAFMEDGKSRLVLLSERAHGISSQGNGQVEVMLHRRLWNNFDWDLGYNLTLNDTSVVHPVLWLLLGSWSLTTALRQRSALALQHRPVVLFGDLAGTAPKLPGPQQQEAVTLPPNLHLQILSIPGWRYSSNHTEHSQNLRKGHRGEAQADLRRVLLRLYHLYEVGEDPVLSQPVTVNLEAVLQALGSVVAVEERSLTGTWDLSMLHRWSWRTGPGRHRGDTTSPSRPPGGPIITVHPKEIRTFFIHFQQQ
UniProt Q9H9C1: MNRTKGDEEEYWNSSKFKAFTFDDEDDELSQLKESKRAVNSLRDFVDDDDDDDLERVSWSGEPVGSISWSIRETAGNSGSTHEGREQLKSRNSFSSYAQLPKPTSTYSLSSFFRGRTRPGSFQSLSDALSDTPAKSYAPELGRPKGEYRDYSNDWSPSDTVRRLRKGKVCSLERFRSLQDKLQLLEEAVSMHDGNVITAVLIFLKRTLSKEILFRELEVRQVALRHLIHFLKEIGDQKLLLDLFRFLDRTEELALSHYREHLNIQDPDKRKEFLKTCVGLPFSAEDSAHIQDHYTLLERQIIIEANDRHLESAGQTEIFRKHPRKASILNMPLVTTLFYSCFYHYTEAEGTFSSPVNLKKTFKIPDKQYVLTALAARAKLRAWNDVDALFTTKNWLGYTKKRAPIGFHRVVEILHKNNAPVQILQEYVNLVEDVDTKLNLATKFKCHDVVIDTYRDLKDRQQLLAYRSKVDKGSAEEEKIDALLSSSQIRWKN
UniProt Q9UBU9: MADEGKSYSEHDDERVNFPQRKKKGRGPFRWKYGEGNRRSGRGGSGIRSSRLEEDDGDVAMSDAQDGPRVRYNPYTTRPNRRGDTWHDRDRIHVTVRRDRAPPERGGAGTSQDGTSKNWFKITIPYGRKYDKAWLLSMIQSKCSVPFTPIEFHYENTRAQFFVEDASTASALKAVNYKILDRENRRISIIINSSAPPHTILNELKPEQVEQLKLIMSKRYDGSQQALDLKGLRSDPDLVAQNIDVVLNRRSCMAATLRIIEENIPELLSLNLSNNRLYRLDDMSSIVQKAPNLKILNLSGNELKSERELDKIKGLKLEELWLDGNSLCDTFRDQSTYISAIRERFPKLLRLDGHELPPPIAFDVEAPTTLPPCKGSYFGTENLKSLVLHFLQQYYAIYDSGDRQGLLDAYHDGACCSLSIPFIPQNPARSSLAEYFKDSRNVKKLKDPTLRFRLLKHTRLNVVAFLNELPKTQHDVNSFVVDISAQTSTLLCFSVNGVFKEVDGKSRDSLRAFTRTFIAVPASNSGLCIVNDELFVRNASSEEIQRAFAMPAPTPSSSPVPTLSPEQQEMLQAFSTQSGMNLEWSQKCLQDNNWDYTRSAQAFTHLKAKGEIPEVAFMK
UniProt Q9H9L4: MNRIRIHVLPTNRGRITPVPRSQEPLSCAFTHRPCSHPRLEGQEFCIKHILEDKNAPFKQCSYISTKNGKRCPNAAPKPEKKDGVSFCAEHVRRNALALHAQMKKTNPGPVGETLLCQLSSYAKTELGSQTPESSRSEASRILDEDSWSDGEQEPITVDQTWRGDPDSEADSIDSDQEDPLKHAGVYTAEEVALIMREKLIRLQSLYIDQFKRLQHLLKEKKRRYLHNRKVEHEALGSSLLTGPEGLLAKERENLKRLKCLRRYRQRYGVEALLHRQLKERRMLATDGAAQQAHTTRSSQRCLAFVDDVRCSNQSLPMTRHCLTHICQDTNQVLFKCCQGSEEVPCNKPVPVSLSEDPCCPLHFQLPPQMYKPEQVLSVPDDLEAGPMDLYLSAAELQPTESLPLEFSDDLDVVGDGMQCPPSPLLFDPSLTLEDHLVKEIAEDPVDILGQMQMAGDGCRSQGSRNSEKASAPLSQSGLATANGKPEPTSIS
UniProt Q07866: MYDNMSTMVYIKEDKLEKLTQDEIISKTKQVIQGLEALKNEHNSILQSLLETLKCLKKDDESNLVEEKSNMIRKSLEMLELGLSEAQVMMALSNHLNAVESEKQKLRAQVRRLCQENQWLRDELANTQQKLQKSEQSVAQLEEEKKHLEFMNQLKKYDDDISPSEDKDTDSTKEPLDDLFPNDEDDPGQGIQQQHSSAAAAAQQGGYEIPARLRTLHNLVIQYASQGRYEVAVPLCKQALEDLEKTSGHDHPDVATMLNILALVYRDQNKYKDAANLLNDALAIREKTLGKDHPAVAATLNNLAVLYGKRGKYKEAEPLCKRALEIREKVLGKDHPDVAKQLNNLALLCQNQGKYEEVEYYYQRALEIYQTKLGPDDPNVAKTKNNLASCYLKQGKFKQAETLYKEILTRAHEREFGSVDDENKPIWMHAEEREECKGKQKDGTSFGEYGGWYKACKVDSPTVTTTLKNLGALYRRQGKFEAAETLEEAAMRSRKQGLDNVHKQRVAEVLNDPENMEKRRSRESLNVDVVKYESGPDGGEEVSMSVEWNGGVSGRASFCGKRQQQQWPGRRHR
UniProt Q9HAW4: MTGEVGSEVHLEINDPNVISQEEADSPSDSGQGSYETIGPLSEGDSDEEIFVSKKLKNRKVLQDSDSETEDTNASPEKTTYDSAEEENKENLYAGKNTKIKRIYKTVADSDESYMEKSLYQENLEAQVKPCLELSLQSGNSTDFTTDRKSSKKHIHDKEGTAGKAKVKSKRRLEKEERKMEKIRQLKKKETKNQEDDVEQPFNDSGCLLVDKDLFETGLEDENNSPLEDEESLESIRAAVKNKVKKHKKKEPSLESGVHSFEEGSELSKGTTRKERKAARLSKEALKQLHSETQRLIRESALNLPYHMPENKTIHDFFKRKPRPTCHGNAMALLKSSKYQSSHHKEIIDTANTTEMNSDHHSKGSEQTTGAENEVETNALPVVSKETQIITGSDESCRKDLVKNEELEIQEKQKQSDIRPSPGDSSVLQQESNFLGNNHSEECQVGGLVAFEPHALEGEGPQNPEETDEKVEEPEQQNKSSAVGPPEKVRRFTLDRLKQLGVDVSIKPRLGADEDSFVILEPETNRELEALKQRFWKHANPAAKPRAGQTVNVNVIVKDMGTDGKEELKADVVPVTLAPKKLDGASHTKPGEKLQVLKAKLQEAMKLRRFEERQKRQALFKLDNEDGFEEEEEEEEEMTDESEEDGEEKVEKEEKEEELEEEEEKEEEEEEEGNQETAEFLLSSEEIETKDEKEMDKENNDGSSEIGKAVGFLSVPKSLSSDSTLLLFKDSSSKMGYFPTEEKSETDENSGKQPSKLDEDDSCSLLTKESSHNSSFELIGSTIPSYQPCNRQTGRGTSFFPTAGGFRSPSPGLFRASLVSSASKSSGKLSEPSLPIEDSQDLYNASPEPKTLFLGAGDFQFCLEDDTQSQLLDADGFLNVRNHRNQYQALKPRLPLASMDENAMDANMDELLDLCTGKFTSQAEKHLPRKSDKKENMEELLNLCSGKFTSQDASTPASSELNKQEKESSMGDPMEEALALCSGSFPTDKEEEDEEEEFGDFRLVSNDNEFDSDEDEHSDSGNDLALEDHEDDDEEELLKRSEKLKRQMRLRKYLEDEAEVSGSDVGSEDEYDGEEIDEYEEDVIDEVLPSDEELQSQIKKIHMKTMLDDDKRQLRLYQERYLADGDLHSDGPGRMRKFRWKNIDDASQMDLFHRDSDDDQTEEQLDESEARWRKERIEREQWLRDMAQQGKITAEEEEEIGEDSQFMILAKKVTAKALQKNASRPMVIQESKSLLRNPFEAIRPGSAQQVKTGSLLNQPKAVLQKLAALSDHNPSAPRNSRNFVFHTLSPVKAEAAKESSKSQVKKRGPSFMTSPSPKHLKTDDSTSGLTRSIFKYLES
UniProt Q9Y4P3: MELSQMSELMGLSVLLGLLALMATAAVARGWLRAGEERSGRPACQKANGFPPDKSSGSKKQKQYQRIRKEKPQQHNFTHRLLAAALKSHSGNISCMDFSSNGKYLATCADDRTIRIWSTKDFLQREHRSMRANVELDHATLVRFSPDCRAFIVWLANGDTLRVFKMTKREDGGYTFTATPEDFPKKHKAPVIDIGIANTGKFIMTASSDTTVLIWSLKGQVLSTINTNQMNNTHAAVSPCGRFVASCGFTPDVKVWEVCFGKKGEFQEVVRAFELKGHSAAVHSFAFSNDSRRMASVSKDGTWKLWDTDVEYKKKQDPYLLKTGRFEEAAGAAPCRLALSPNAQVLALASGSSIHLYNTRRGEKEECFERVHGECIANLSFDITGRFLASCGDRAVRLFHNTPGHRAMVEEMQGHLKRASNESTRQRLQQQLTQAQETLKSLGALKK
UniProt Q9Y5L0: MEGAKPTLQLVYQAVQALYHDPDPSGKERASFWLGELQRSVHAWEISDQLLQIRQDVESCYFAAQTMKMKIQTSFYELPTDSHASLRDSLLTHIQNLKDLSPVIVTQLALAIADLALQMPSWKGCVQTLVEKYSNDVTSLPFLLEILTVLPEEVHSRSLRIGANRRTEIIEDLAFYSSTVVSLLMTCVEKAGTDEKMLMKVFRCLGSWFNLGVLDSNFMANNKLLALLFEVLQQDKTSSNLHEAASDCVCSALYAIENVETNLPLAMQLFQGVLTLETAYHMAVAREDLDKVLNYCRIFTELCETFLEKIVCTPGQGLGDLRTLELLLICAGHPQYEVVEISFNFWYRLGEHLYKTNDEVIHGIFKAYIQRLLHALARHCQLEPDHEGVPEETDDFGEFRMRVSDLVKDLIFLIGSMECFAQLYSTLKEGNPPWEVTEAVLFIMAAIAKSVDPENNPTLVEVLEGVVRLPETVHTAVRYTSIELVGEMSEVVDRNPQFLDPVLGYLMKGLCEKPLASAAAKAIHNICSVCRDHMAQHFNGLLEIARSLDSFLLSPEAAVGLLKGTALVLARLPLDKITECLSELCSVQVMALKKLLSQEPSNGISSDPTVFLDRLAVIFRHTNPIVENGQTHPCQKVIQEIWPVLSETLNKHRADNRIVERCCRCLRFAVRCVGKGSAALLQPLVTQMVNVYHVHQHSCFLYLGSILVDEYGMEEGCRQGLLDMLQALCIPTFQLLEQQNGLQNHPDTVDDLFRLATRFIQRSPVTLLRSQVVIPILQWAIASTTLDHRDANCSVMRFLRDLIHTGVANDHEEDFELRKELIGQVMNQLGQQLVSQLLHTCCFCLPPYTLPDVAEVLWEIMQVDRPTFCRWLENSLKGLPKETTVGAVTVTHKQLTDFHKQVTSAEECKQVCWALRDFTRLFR
UniProt Q9H936: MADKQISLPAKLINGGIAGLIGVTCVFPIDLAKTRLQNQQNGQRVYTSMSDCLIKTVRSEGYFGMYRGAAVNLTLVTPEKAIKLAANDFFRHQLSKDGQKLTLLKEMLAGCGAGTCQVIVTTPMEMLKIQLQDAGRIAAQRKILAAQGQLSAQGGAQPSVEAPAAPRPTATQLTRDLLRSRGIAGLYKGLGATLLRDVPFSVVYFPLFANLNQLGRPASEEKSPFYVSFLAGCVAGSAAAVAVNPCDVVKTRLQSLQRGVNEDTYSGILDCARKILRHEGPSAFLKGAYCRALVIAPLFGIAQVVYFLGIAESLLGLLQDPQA
UniProt Q9UK41: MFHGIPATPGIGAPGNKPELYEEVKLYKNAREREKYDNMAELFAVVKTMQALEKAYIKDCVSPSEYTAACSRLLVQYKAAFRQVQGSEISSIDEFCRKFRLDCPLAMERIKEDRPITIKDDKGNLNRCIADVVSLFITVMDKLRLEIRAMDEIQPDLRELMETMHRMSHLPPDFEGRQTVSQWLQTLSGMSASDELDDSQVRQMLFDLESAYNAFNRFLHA

Compound: Nc1nc2c(ncn2[C@@H]2O[C@H](COP(=O)(O)OP(=O)(O)OP(=O)(O)O)[C@@H](O)[C@H]2O)c(=O)[nH]1 [guanosine triphosphate]
Test: NP40-soluble protein abundance relative to vehicle (solubility fold change) (ratio); higher = more soluble protein in presence of GTP
Method in brief: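 Jurkat crude lysate prepared with a Dounce homogeniser was treated at eight concentrations spanning 0.1 to 10 mM, 10 min at room temperature then 3 min at 37 °C. Solubilisation with 0.8% NP40 and benzonase and ultracentrifugation preceded TMT labelling of the supernatant for LC-MS/MS. Fold change against the detergent-processed vehicle was determined per replicate from vsn-normalised intensities, across three independent experiments.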

Row | Target | NP40-soluble protein abundance (concentration: 0.1mM) | NP40-soluble protein abundance (concentration: 0.5mM) | NP40-soluble protein abundance (concentration: 1mM) | NP40-soluble protein abundance (concentration: 2mM) | NP40-soluble protein abundance (concentration: 4mM) | NP40-soluble protein abundance (concentration: 6mM) | NP40-soluble protein abundance (concentration: 8mM) | NP40-soluble protein abundance (concentration: 10mM)
1 | E9PQL1 and related entries (UniProt Q8TAV0) | 0.987 ± 0.025 | 1.02 ± 0.035 | 1.1 ± 0.096 | 1.1 ± 0.1 | 1.05 ± 0.12 | 1.05 ± 0.14 | 1.06 ± 0.14 | 1.09 ± 0.098
2 | E9PCD7 and related entries (UniProt Q9Y2E5) | 0.9 ± 0.062 | 0.941 ± 0.02 | 1.01 ± 0.032 | 0.952 ± 0.039 | 0.991 ± 0.061 | 0.986 ± 0.04 | 0.984 ± 0.044 | 1.02 ± 0.074
3 | G3V4K3 and related entries (UniProt Q9H9C1) | 0.961 ± 0.06 | 1.01 ± 0.06 | 0.913 ± 0.02 | 0.895 ± 0.045 | 0.896 ± 0.034 | 0.926 ± 0.058 | 0.93 ± 0.053 | 0.93 ± 0.086
4 | E9PN39 and related entries (UniProt Q6P444) | 1.01 ± 0.15 | 0.987 ± 0.092 | 1.03 ± 0.088 | 0.998 ± 0.2 | 1.04 ± 0.12 | 1.03 ± 0.083 | 1.1 ± 0.17 | 0.942 ± 0.14
5 | E9PIN3 and related entries (UniProt Q9UBU9) | 1.05 ± 0.045 | 1.04 ± 0.051 | 1.03 ± 0.025 | 1.12 ± 0.064 | 1.25 ± 0.056 | 1.37 ± 0.064 | 1.43 ± 0.093 | 1.55 ± 0.1
6 | E9PE17 and related entries (UniProt Q9Y2R5+I3L0E3+E9PE17) | 0.987 ± 0.04 | 1.06 ± 0.13 | 1.15 ± 0.21 | 1.25 ± 0.29 | 1.28 ± 0.28 | 1.2 ± 0.26 | 1.14 ± 0.28 | 1.13 ± 0.28
7 | E7ETD6 and related entries (UniProt Q12830) | 1 ± 0.025 | 1.04 ± 0.033 | 1.11 ± 0.0085 | 1.14 ± 0.024 | 1.18 ± 0.046 | 1.18 ± 0.036 | 1.27 ± 0.15 | 1.28 ± 0.14
8 | F8VX10 and related entries (UniProt Q9H9L4) | 1.01 ± 0.087 | 1.09 ± 0.098 | 1.11 ± 0.058 | 1.15 ± 0.072 | 1.18 ± 0.13 | 1.18 ± 0.23 | 1.27 ± 0.22 | 1.24 ± 0.16
9 | G3V3H3 and related entries (UniProt Q07866) | 0.949 ± 0.055 | 0.991 ± 0.068 | 0.974 ± 0.056 | 0.932 ± 0.06 | 0.93 ± 0.047 | 0.942 ± 0.05 | 0.971 ± 0.053 | 0.965 ± 0.069
10 | G3V394 and related entries (UniProt Q9Y4I1) | 1.28 ± 0.16 | 2.15 ± 0.36 | 2.39 ± 0.25 | 2.51 ± 0.3 | 2.65 ± 0.31 | 2.59 ± 0.39 | 2.5 ± 0.4 | 2.51 ± 0.36
11 | E7ESG2 and related entries (UniProt Q9HAW4) | 1.04 ± 0.056 | 1.02 ± 0.059 | 1.05 ± 0.058 | 0.997 ± 0.083 | 1.02 ± 0.067 | 1.01 ± 0.058 | 1.09 ± 0.032 | 1.02 ± 0.056
12 | F5H136 and related entries (UniProt P17987) | 0.988 ± 0.02 | 1.07 ± 0.086 | 1.08 ± 0.12 | 1.11 ± 0.18 | 1.09 ± 0.2 | 1.1 ± 0.21 | 1.06 ± 0.19 | 1.02 ± 0.2
13 | G3V2T4 and related entries (UniProt Q99538) | 0.917 ± 0.053 | 0.898 ± 0.047 | 0.949 ± 0.04 | 0.912 ± 0.033 | 0.871 ± 0.076 | 0.923 ± 0.085 | 0.916 ± 0.073 | 0.935 ± 0.035
14 | F5GX09 and related entries (UniProt Q5HYJ3) | 0.971 ± 0.1 | 0.966 ± 0.074 | 0.933 ± 0.083 | 0.913 ± 0.086 | 0.891 ± 0.08 | 0.897 ± 0.094 | 0.924 ± 0.092 | 0.961 ± 0.066
15 | E9PF19 and related entries (UniProt Q9Y4P3) | 1.11 ± 0.067 | 1.1 ± 0.066 | 1.14 ± 0.045 | 1.2 ± 0.046 | 1.3 ± 0.078 | 1.31 ± 0.042 | 1.32 ± 0.027 | 1.33 ± 0.067
16 | F6T1Q0 and related entries (UniProt Q6L8Q7) | 1.01 ± 0.02 | 0.965 ± 0.048 | 0.902 ± 0.022 | 0.902 ± 0.064 | 0.892 ± 0.046 | 0.885 ± 0.057 | 0.848 ± 0.046 | 0.828 ± 0.081
17 | E9PFH4 and related entries (UniProt Q9Y5L0) | 1.02 ± 0.041 | 1.02 ± 0.051 | 0.992 ± 0.059 | 0.983 ± 0.059 | 0.985 ± 0.054 | 0.952 ± 0.059 | 0.922 ± 0.032 | 0.919 ± 0.081
18 | E9PJH7 and related entries (UniProt Q9H936) | 1.08 ± 0.049 | 1.05 ± 0.078 | 1 ± 0.044 | 1.02 ± 0.11 | 1.07 ± 0.095 | 1.04 ± 0.1 | 1.02 ± 0.043 | 1 ± 0.039
19 | F8VXC8 and related entries (UniProt Q8TAQ2) | 1.02 ± 0.044 | 1.05 ± 0.011 | 1.12 ± 0.074 | 1.14 ± 0.1 | 1.17 ± 0.1 | 1.19 ± 0.15 | 1.23 ± 0.2 | 1.22 ± 0.19
20 | F5H5I6 and related entries (UniProt Q12849) | 0.9639 ± 0.005 | 0.929 ± 0.017 | 0.825 ± 0.069 | 0.787 ± 0.094 | 0.724 ± 0.12 | 0.742 ± 0.14 | 0.725 ± 0.11 | 0.727 ± 0.12
21 | F8WA39 and related entries (UniProt Q13613) | 1.02 ± 0.034 | 1.02 ± 0.063 | 0.963 ± 0.023 | 1.01 ± 0.042 | 1.02 ± 0.064 | 0.989 ± 0.068 | 1 ± 0.12 | 0.986 ± 0.086
22 | G3XAG1 and related entries (UniProt Q96ME7) | 1.1 ± 0.013 | 1.17 ± 0.055 | 1.27 ± 0.04 | 1.445 ± 0.014 | 1.74 ± 0.059 | 1.88 ± 0.079 | 2.01 ± 0.13 | 2.17 ± 0.081
23 | E9PM92 and related entries (UniProt O00193+E9PM92) | 0.96 ± 0.058 | 1.02 ± 0.085 | 1.25 ± 0.036 | 1.17 ± 0.093 | 1.15 ± 0.055 | 1.2 ± 0.14 | 1.22 ± 0.092 | 1.28 ± 0.032
24 | F8VYC4 and related entries (UniProt P0DJD1+P0DJD0+F8VYC4) | 0.973 ± 0.065 | 1.03 ± 0.053 | 0.97 ± 0.079 | 1.01 ± 0.03 | 0.941 ± 0.12 | 0.992 ± 0.096 | 1.06 ± 0.14 | 1.02 ± 0.11
25 | G5E953 and related entries (UniProt Q13615) | 1.01 ± 0.036 | 0.987 ± 0.04 | 0.978 ± 0.063 | 0.953 ± 0.034 | 0.976 ± 0.045 | 0.963 ± 0.065 | 1 ± 0.042 | 0.971 ± 0.028
26 | E9PQR7 and related entries (UniProt Q9UK41) | 0.87 ± 0.14 | 0.859 ± 0.092 | 1.04 ± 0.12 | 1.05 ± 0.052 | 0.992 ± 0.086 | 1.02 ± 0.073 | 0.937 ± 0.18 | 1.07 ± 0.16

Exported tab-delimited: entries from further up.
Row	Target	NP40-soluble protein abundance (concentration: 0.1mM)	NP40-soluble protein abundance (concentration: 0.5mM)	NP40-soluble protein abundance (concentration: 1mM)	NP40-soluble protein abundance (concentration: 2mM)	NP40-soluble protein abundance (concentration: 4mM)	NP40-soluble protein abundance (concentration: 6mM)	NP40-soluble protein abundance (concentration: 8mM)	NP40-soluble protein abundance (concentration: 10mM)
2	E9PCD7 and related entries (UniProt Q9Y2E5)	0.9 ± 0.062	0.941 ± 0.02	1.01 ± 0.032	0.952 ± 0.039	0.991 ± 0.061	0.986 ± 0.04	0.984 ± 0.044	1.02 ± 0.074
3	G3V4K3 and related entries (UniProt Q9H9C1)	0.961 ± 0.06	1.01 ± 0.06	0.913 ± 0.02	0.895 ± 0.045	0.896 ± 0.034	0.926 ± 0.058	0.93 ± 0.053	0.93 ± 0.086
4	E9PN39 and related entries (UniProt Q6P444)	1.01 ± 0.15	0.987 ± 0.092	1.03 ± 0.088	0.998 ± 0.2	1.04 ± 0.12	1.03 ± 0.083	1.1 ± 0.17	0.942 ± 0.14
5	E9PIN3 and related entries (UniProt Q9UBU9)	1.05 ± 0.045	1.04 ± 0.051	1.03 ± 0.025	1.12 ± 0.064	1.25 ± 0.056	1.37 ± 0.064	1.43 ± 0.093	1.55 ± 0.1
6	E9PE17 and related entries (UniProt Q9Y2R5+I3L0E3+E9PE17)	0.987 ± 0.04	1.06 ± 0.13	1.15 ± 0.21	1.25 ± 0.29	1.28 ± 0.28	1.2 ± 0.26	1.14 ± 0.28	1.13 ± 0.28
7	E7ETD6 and related entries (UniProt Q12830)	1 ± 0.025	1.04 ± 0.033	1.11 ± 0.0085	1.14 ± 0.024	1.18 ± 0.046	1.18 ± 0.036	1.27 ± 0.15	1.28 ± 0.14
8	F8VX10 and related entries (UniProt Q9H9L4)	1.01 ± 0.087	1.09 ± 0.098	1.11 ± 0.058	1.15 ± 0.072	1.18 ± 0.13	1.18 ± 0.23	1.27 ± 0.22	1.24 ± 0.16
